Test results reported in patent US10398720B2, “Compound of the avermectin family or of the milbemycin family for the treatment and/or prevention of atopic dermatitis” (GALDERMA SA, priority 2013, dated 2019).
For at least one compound, name, drawing or mass did not settle the structure.

System: Der f-induced AD mouse model
Test: Dermatophagoides farinae (Der f)-induced atopic dermatitis (AD)-like mouse model, topical route
Format: in vivo, Balb/c mice
Settings: 0.05% triamcinolone acetonide
Experimental: 1.1. […] Der f has been purchased from Greer Laboratories and a Der f solution has been prepared at 12.5 mg/ml in 70% DMSO in MilliQ water. […] Balb/c mice strain has been used for the study. These animals have been obtained from controlled breeding and were specific pathogen free. The animals have been provided by Janvier SAS, France. AD-like lesions have been induced once a week by topical application of 20 μl of Der f solution on the right ear for 5 weeks at […], day 29 and day 36. Mice have been daily treated from day 19 to day 36 with the different solutions administrated by the topical route. Measurement of ear thickness have been monitored before and 24 hours after each allergen application. After day 19, ears have been daily measured before compound application. Blood samples have been collected into appropriate vials under isoflurane anaesthesia for further analysis (IgE). Mice have been then immediately euthanized. After mouse euthanasia, the right ear has been collected and has been washed in ethanol 70% and has been rinsed in PBS. Three skin biopsies have then been collected for cytokines profiles, eosinophil peroxidase (EPO) quantification and histological slides in order to quantify the mastocytes and in order to measure the epidermis thickness.

[1] = histological slides, ivermectin 0.003, 0.01, 0.03 and 0.1%

CC1(C)O[C@@H]2C[C@H]3[C@@H]4CCC5=CC(=O)C=C[C@]5(C)[C@@]4(F)[C@@H](O)C[C@]3(C)[C@]2(C(=O)CO)O1 [triamcinolone acetonide]
IgE secretion (total seric IgE, FIG. 4) (blood sample, ivermectin 0.003, 0.01, 0.03 and 0.1%): totally reduces
epidermal thickness (FIG. 2) [1]: strongly reduces
mastocyte count (within the dermis, FIG. 6) [1]: strongly reduces
EPO (eosinophil peroxidase, FIG. 3) (right ear skin biopsy, ivermectin 0.003, 0.01 and 0.03%): totally reduces
cytokine concentration / production (IL-10, IL-13, IL-17, IL-4, IL-5, IFNg; FIG. 5) (right ear skin biopsy, 0.1% ivermectin, 0.1% tacrolimus): totally reduces
inflammatory response induced by Der f application (topical daily day 19 to day 36, solutions in acetone, 0.1% tacrolimus, ivermectin 0.003-0.1%): completely inhibit
ear edema (ear thickness, FIG. 1) (topical daily day 19 to day 36, 0.1% tacrolimus, ivermectin 0.003, 0.01, 0.03 and 0.1%): totally reduces
